# Measurements: patent publication US20090137662A1, “SYNERGY OF DOPAMINE D2 AND ADENOSINE A2 RECEPTORS ACTIVATES PKA SIGNALING VIA BETA/GAMMA DIMERS” (The Regents of the University of California, priority 2002, published 2009)
# At least one compound was matched to its structure with a doubt left.
# Tests used:
# [1] = system: Cα catalytic subunit of PKA; assay: Immunostaining of PKA Cα localization in NG108-15 cells; assay type: cell-based
# [2] = system: PKA subunits (RIα, RIIα, RIβ, Cα, Cβ, Cγ); assay: Immunocytochemical localization of PKA subunits in neutrophils; assay type: cell-based, human
# Description: Methods 5:249-252 (1974). […] This step removed contaminating platelets from the lymphocyte fraction. […] Images were further analyzed using NIH Image.
# [3] = system: ε-PKC; assay: Translocation of ε-PKC in NG108-15 and CHO cells expressing the applicable receptor; assay type: cell-based; details: PKA agonist Sp-cAMPS, or forskolin or PGE1 to increase cAMP levels
# Description: (§1) To determine whether addictive drugs other than ethanol would cause translocation of some proteins, we examine the effects of various receptor agonists and antagonists on ε-PKC δ-PKC or PKA Cα translocation in NG108-15 and CHO cells expressing the applicable receptor. […] Adenosine is also implicated in some behavioral effects of ethanol.
# (§2) The mechanisms underlying ethanol- and dopamine-mediated translocation of ε-PKC and δ-PKC were studied by altering the activity of various molecules that might be in the pathways leading to translocation.
# [4] = system: δ-PKC; assay: Translocation of δ-PKC in NG108-15 and CHO cells expressing the applicable receptor; assay type: cell-based; details: PKA agonist Sp-cAMPS, or forskolin or PGE1 to increase cAMP levels
# Description: as §1, §2
compound,measurement,setting,value
C=C[C@@]1(C)CC(=O)[C@]2(O)[C@@]3(C)[C@@H](O)CCC(C)(C)[C@@H]3[C@H](O)[C@H](OC(C)=O)[C@@]2(C)O1 [forskolin],time of maximal translocation of Cα away from the Golgi,[1]; 1 μM forskolin or 10 μM PGE,~30 min
same,return of Cα staining to the Golgi after maximal translocation,"[1]; 1 μM forskolin or 200 mM ethanol, time course",return of staining to the Golgi
same,localization of RIα after acute treatment,"[2]; neutrophils from non-alcoholics, 200 mM ethanol or 100 nM forskolin",translated from the cytoplasm to the nucleus
same,effect on RIβ localization,"[2]; neutrophils, ethanol or forskolin",did not alter
same,translocation of ε PKC on activation of PKA,[3],translocate to the cytoplasm
same,translocation of δ PKC on activation of PKA,[4],did not induce translocation
